{"sequences": {"note": "Sequences of proteins named here, by UniProt entry; tags and fusion partners are left off.", "UniProt P18054, whole entry, looked up": "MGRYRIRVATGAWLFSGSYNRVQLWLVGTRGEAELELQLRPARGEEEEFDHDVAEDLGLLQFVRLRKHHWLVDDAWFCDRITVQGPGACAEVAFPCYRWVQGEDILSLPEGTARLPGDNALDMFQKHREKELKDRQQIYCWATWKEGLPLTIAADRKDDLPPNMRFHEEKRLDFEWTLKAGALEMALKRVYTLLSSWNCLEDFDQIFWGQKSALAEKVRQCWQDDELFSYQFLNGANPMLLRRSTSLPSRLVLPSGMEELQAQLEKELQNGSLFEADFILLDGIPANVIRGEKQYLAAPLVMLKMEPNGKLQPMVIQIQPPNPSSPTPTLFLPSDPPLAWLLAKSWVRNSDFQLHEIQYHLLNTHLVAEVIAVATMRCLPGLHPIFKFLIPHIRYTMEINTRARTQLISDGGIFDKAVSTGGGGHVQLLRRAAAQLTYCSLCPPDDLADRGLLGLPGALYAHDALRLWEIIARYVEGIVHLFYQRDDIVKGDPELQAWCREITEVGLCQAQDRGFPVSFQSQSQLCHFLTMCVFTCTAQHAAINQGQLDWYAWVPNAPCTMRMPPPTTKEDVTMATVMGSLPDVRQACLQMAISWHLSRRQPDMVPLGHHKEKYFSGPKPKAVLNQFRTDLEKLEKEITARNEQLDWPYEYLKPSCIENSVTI"}, "source": "PubChem BioAssay AID1671190", "about": "(National Center for Advancing Translational Sciences (NCATS), 2021)", "note": "Where “and” joins values, the source holds several entries; their conditions need not be identical. Identical values can stand only once. In all, about 580,000 compounds went through this assay and about 6,100 (1.1%) were called active. The inconclusive results got no clear call from the source; some entries with a clear call stand among them for comparison. Calls follow the shape of the dose curve; as a rule, active = well fitted inhibition curve with a large enough effect; inconclusive = small, poorly fitted or top-dose-only effect, or another doubt; inactive = no such curve, though single readings can be large or run the other way. Where the call is inconclusive, the potency comes from a doubtful curve fit. % is scaled to controls: 0 for no effect and ±100 for the full control effect; potency is read from the fitted curve at half-maximal effect."}
{"target": "Polyunsaturated fatty acid lipoxygenase ALOX12 (Homo sapiens) (UniProt P18054)", "assay": "Primary qHTS assay for inhibitors of human arachidonate 12S-lipoxygenase (ALOX12): Round 2", "details": "purified 12hLO, xylenol orange hydroperoxide absorbance; activity change, negative = inhibition: at 108 µM (top of the series) unless noted", "outline": "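Hydroperoxide product was detected by ferrous iron/xylenol orange as the 573 to 405 nm absorbance ratio. Arachidonic acid at 40 uM (final) was turned over for 30 min at room temperature by 150 nM human 12hLO, pH 7.0 Hepes buffer, after 15 min compound preincubation.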"}
{"compound": "c1ccc(-c2nc3ccccn3c2-c2ccccc2)cc1", "activity change, negative = inhibition": "inactive: -10.4%"}
{"compound": "CCN(CC)c1ccc(/C=N/n2nnnc2N)c(O)c1", "activity change, negative = inhibition": "inactive: -22.8%"}
{"compound": "O=C(O)c1cc([N+](=O)[O-])ccc1C(=O)Nc1ccccc1", "Potency": "inconclusive: 39.8 µM [inhibitor, partial curve, poor fit]"}
{"compound": "COc1ccc(CNC(=O)CN(c2cccc([N+](=O)[O-])c2)S(C)(=O)=O)cc1", "Potency": "inconclusive: 2 µM [inhibitor, full curve, poor fit]"}
{"compound": "CC1(C)Cc2c(sc3nc4n(c(=N)c23)CCC4)CO1", "activity change, negative = inhibition": "inactive: 33%"}
{"compound": "CC(=O)CCc1c[nH]c2c(C(=O)O)cccc12", "Potency": "inconclusive: 31.6 µM [inhibitor, single point]"}
{"compound": "CCC(C)C(=O)OC1CCC=C2C=CC(C)C(CCC3CC(O)CC(=O)O3)C21", "note": "(configuration not stated)", "Potency": "inconclusive: 112 µM [inhibitor, partial curve, poor fit]"}
{"compound": "O=C(CCC(=O)N1CCOc2ccc(Cl)cc21)NCCCN1CCC(Cc2ccccc2)CC1", "activity change, negative = inhibition": "inactive: -13%"}
{"compound": "COc1ccc(-c2nc3ccccc3n2Cc2ccc(Cl)cc2)cc1", "Potency": "inconclusive: 56.2 µM [inhibitor, partial curve, poor fit]"}
{"compound": "Cn1cc(CN2CCc3ccccc3C2)c2ccccc21", "Potency": "inconclusive: 28.2 µM [inhibitor, partial curve, poor fit]"}
{"compound": "CCc1nnc(NC(=O)CS(=O)(=O)c2ccccc2)s1", "Potency": "inconclusive: 22.4 µM [inhibitor, partial curve, poor fit]"}
{"compound": "Cc1c(NC(=O)c2cc3nc(-c4ccc(Cl)cc4)cc(C(F)(F)F)n3n2)c(=O)n(-c2ccccc2)n1C", "Potency": "inconclusive: 14.1 µM [inhibitor, full curve, poor fit]"}
{"compound": "CCn1c(-c2cccnc2)nc2cc(NC(=O)COC)cc(C(=O)N3CCOc4ccccc4C3)c21", "activity change, negative = inhibition": "inactive: -2.28%"}
{"compound": "Cc1ccc(NC(=O)CNc2cccc(S(=O)(=O)N3CCCC3)c2)cc1F", "Potency": "inconclusive: 50.1 µM [inhibitor, partial curve, poor fit]"}
{"compound": "CCc1n[nH]c(=S)n1/N=C/c1ccccc1OCc1ccc(Cl)cc1", "activity change, negative = inhibition": "inactive: -1.77%"}
{"compound": "O=C(Nc1cccc(NC(=O)c2ccco2)c1)c1ccccc1", "Potency": "inconclusive: 3.98 µM [inhibitor, full curve, poor fit]"}
{"compound": "O=C(O)c1cncc(C#Cc2ccccc2)c1", "Potency": "inconclusive: 112 µM [inhibitor, partial curve, poor fit]"}
{"compound": "CCN(CC)C(=O)C[C@@H]1c2nc(NC(=O)C3CCC3)sc2C[C@@H]2[C@](C)(CO)[C@H](O)CC[C@]21C", "Potency": "inconclusive: 44.7 µM [inhibitor, partial curve, poor fit]"}
{"compound": "O=S(=O)(NCc1ccccc1)c1ccc(Br)s1", "Potency": "inconclusive: 8.91 µM [inhibitor, full curve, poor fit]"}
{"compound": "CCCN(C)C[C@@H]1OCCCC[C@@H](C)Oc2ccc(NC(=O)c3ccccc3)cc2C(=O)N([C@H](C)CO)C[C@@H]1C", "activity change, negative = inhibition": "inactive: -3.42%"}
{"compound": "CC1CCCCN1CC(=O)N1CCCc2c1c(=O)oc1ccc(OCc3ccccc3)cc21", "note": "(configuration not stated)", "Potency": "inconclusive: 112 µM [inhibitor, partial curve, poor fit]"}
{"compound": "O=C(NCc1ccc(Cl)cc1)c1cnn2ncccc12", "activity change, negative = inhibition": "inactive: 18.5% [at 176 µM]"}
{"compound": "O=C(NCCS(=O)(=O)N1CCN(c2ccccc2)CC1)C1CC(=O)N(c2ccccc2)C1", "note": "(configuration not stated)", "Potency": "inconclusive: 79.4 µM [inhibitor, partial curve, poor fit] and inconclusive: 5.62 µM [inhibitor, partial curve, poor fit]"}
{"compound": "Cc1cc(=O)oc2cc(OCC(=O)Nc3nc4ccccc4[nH]3)ccc12", "activity change, negative = inhibition": "inactive: 7.02%"}
{"compound": "Cc1cc(Br)ccc1NC(=O)C1(S(=O)(=O)c2ccc(Cl)cc2)CC1", "Potency": "inconclusive: 56.2 µM [inhibitor, partial curve, poor fit]"}
{"compound": "COc1ccc(OC)c(C(=O)C(=O)c2cc(OC)ccc2OC)c1", "Potency": "inconclusive: 112 µM [inhibitor, partial curve, poor fit]"}
{"compound": "C[N+](C)(CCOc1ccccc1)Cc1ccccc1", "Potency": "inconclusive: 35.5 µM [inhibitor, partial curve]"}
{"compound": "COc1cc(/C=C/C(=O)c2ccc3c(c2)OCCO3)cc(Br)c1OCC(=O)N(C)C", "activity change, negative = inhibition": "inactive: -9.82%"}
{"compound": "COC(=O)C1=C(C)N(Cc2ccccc2C(F)(F)F)C(=NCC2CC2)NC1CCc1ccccc1", "note": "(configuration not stated)", "Potency": "inconclusive: 79.4 µM [inhibitor, partial curve, poor fit]"}
{"compound": "O=C(O)CCS(=O)(=O)Cc1cccc(Br)c1", "Potency": "inconclusive: 35.5 µM [inhibitor, partial curve, poor fit]"}
{"compound": "CCOc1ccc(C(=O)CC(Sc2ccc(C)cc2)C(=O)O)cc1", "note": "(configuration not stated)", "Potency": "inconclusive: 89.1 µM [inhibitor, partial curve, poor fit]"}
{"compound": "Cc1ccc(Cc2c(C)nc3nc(SCC(=O)NCCCN4CCCC4)nn3c2C)cc1", "Potency": "inconclusive: 141 µM [inhibitor, single point]"}
{"compound": "CCCCOc1ccc(C(=O)N2CCC(c3n[nH]c(=O)n3Cc3ccc(C)cc3)CC2)cc1", "Potency": "inconclusive: 63.1 µM [inhibitor, partial curve, poor fit]"}
{"compound": "O=c1c(CN2CCN(Cc3ccccc3)CC2)coc2ccc(Cl)cc12", "Potency": "inconclusive: 6.31 µM [inhibitor, full curve]"}
{"compound": "CCCOc1ccc(N2C(=O)CC(N(CCc3ccc(OC)c(OC)c3)C(=O)c3ccccc3)C2=O)cc1", "note": "(configuration not stated)", "Potency": "inconclusive: 100 µM [inhibitor, partial curve, poor fit]"}
{"compound": "COc1cc2c(cc1OC)C(c1ccc(Br)cc1)CC(=O)N2", "note": "(configuration not stated)", "Potency": "inconclusive: 79.4 µM [inhibitor, single point]"}
{"compound": "Cc1ccccc1OCC(=O)OCC(=O)Nc1ccc2c(c1)OCCO2", "activity change, negative = inhibition": "inactive: 46.8%"}
{"compound": "COc1ccc2cc(CNC(=O)C(C)C)ccc2c1", "Potency": "inconclusive: 100 µM [inhibitor, single point]"}
{"compound": "CCn1c2ccc(/C(C)=N\\O)cc2c2cc(/C(C)=N\\O)ccc21", "Potency": "inconclusive: 7.08 µM [inhibitor, partial curve, poor fit]"}
{"compound": "COC(=O)c1cc(C)sc1NC(=O)CC1Sc2ccc(C(F)(F)F)cc2NC1=O", "note": "(configuration not stated)", "Potency": "inconclusive: 7.08 µM [inhibitor, partial curve, poor fit]"}
{"compound": "CCOC(=O)Cc1csc(NS(=O)(=O)c2cccc([N+](=O)[O-])c2)n1", "activity change, negative = inhibition": "inactive: 0%"}
{"compound": "O=C1CC(c2ccccc2)N(Cc2ccncc2)CCCN(CC2CCCCC2)CCN1", "note": "(configuration not stated)", "activity change, negative = inhibition": "inactive: 115%"}
{"compound": "CCC(C)(C)n1nnnc1CN1CCN(c2nc3cc(OC)ccc3cc2C#N)CC1", "Potency": "inconclusive: 6.31 µM [inhibitor, full curve, poor fit]"}
{"compound": "COc1cccc(N2CC(NC(=O)COc3ccc4ccccc4c3)CC2=O)c1", "note": "(configuration not stated)", "Potency": "inconclusive: 56.2 µM [inhibitor, partial curve, poor fit]"}
{"compound": "CC(=O)c1cccc(S(=O)(=O)N2CCCC(c3nc(-c4ccc(C)o4)no3)C2)c1", "note": "(configuration not stated)", "Potency": "inconclusive: 35.5 µM [inhibitor, partial curve, poor fit]"}
{"compound": "CC1=NN(c2ccc(C)cc2)C(=O)/C1=C/c1ccc(-c2cc([N+](=O)[O-])ccc2O)o1", "Potency": "active: 20 µM"}
{"compound": "COC(=O)[C@H]1C[C@H](OC(=O)Nc2cccs2)[C@@]2(O)CN(S(=O)(=O)c3ccc(C)cc3)CC2[C@H]1C(=O)OC", "note": "(some centres not stated)", "Potency": "inconclusive: 50.1 µM [inhibitor, single point]"}
{"compound": "CC(C)N1CCN(C(=O)CCC[C@@H]2[C@H]3CCCN4CCC[C@@H](CN2C(=O)c2cccnc2)[C@@H]34)CC1", "activity change, negative = inhibition": "inactive: 65.7%"}
{"compound": "Cc1cc2c3c(c1C)C1(C(=O)N3C(C)(C)CC2C)C(C#N)=C(N)Oc2cc(O)ccc21", "note": "(configuration not stated)", "Potency": "inconclusive: 126 µM [inhibitor, single point]"}
{"compound": "COCCN1C(=O)C(=O)/C(=C(/O)c2ccc(OCC(C)C)cc2C)C1c1cccnc1", "note": "(configuration not stated)", "Potency": "inconclusive: 0.708 µM [inhibitor, full curve]"}
{"compound": "NS(=O)(=O)c1ccc(NC(=S)NCc2ccc(F)cc2)cc1", "Potency": "inconclusive: 50.1 µM [inhibitor, partial curve, poor fit]"}
{"compound": "O=C(c1cc(-c2ccco2)nc2ccccc12)N1CCN(Cc2ccccc2)CC1", "Potency": "inconclusive: 35.5 µM [inhibitor, partial curve, poor fit]"}
{"compound": "CCN1CCC(N(Cc2ccc3c(c2)OCO3)C(=O)Nc2ccc(OC)c(OC)c2)CC1", "Potency": "inconclusive: 89.1 µM [inhibitor, single point]"}
{"compound": "COc1ccc(CCN2C(=O)c3ccccc3C2c2nnnn2-c2c(C)cccc2C)cc1OC", "note": "(configuration not stated)", "activity change, negative = inhibition": "inactive: 27.2%"}
{"compound": "COc1cccc(-c2nc(/C=C(/CCC(=O)O)c3nc4ccccc4s3)cs2)c1", "activity change, negative = inhibition": "inactive: 24.7%"}
{"compound": "N#Cc1ccccc1CSc1ccc(-c2nc3ccccc3[nH]2)cn1", "activity change, negative = inhibition": "inactive: -8.57%"}
{"compound": "CN1CCN(c2ncc3nc(-c4ccc(Cl)cc4)c(=O)n(C)c3n2)CC1", "Potency": "inconclusive: 8.91 µM [inhibitor, full curve, poor fit]"}
{"compound": "Cc1cccc(N/C=C/C(=O)C(F)(F)F)c1", "activity change, negative = inhibition": "inactive: 10.5%"}
{"compound": "COC(=O)c1c(NC(=O)/C=C/C(=O)O)sc(C)c1-c1ccc(C)cc1", "Potency": "inconclusive: 112 µM [inhibitor, single point]"}
{"compound": "COc1ncccc1-c1nccn2c(C3CN(C(=O)c4cc5ccccc5[nH]4)C3)ncc12", "Potency": "inconclusive: 112 µM [inhibitor, single point]"}
{"compound": "CC(C)=CCC/C(C)=C/CC/C(C)=C/CC/C(C)=C/CC1=C(C)C(=O)c2ccccc2C1=O", "Potency": "inconclusive: 50.1 µM [inhibitor, partial curve, poor fit]"}
{"compound": "CNCCCOc1cccc(Oc2ccccc2)c1", "Potency": "inconclusive: 3.55 µM [inhibitor, full curve]"}
